Results from article PMC5717138.
Results are given in words; binding and its absence hold for the method and conditions named. Binding seen in cells or lysates may run through a third protein. Some results given as binding are weak or reduced against the parent protein; the word gives no strength. Sequences can lack the tags named with a protein.

T1: 2xFlag-Polη (DNA polymerase η, wild type) (human) (UniProt Q9Y253)
T1 sequence: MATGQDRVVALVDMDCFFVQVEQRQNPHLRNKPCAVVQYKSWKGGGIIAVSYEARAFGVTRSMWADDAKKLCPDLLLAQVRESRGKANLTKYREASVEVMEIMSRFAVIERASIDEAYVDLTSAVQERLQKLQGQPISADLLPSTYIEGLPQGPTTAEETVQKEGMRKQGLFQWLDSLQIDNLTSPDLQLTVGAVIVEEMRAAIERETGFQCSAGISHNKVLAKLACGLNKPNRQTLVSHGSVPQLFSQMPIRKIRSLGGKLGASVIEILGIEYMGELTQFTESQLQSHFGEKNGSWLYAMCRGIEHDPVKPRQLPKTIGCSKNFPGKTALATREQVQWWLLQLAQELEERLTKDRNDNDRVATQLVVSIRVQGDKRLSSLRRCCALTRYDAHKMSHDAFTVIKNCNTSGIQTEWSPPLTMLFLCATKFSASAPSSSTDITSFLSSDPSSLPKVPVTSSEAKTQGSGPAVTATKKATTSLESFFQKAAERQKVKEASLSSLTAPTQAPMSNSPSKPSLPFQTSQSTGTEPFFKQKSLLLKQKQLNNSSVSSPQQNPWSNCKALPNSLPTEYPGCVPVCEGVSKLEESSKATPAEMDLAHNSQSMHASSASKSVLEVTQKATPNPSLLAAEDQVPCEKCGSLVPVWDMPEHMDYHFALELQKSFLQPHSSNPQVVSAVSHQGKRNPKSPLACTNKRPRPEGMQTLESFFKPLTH

T2: Flag-Polη T457A (human) (UniProt Q9Y253)
T2 sequence: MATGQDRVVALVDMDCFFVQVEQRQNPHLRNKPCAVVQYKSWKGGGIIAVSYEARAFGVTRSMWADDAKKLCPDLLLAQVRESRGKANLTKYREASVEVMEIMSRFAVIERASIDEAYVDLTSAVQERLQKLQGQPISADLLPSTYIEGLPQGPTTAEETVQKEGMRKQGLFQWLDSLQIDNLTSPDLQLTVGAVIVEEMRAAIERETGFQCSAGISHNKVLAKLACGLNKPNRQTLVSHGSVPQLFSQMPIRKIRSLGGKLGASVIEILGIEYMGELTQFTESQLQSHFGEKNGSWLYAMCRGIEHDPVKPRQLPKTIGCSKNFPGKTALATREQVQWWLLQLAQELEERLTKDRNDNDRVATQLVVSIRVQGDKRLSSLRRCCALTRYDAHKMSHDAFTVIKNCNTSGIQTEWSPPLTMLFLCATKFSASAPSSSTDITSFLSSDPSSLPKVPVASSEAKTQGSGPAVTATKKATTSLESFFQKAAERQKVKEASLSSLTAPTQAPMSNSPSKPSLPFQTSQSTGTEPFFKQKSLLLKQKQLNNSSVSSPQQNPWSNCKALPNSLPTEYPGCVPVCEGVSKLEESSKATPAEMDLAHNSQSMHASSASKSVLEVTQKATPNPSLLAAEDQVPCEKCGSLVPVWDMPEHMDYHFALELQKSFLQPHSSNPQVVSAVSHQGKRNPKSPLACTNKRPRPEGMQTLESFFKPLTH

T3: Flag-Polη-3A (T457A/S458A/S459A) (human) (UniProt Q9Y253)
T3 sequence: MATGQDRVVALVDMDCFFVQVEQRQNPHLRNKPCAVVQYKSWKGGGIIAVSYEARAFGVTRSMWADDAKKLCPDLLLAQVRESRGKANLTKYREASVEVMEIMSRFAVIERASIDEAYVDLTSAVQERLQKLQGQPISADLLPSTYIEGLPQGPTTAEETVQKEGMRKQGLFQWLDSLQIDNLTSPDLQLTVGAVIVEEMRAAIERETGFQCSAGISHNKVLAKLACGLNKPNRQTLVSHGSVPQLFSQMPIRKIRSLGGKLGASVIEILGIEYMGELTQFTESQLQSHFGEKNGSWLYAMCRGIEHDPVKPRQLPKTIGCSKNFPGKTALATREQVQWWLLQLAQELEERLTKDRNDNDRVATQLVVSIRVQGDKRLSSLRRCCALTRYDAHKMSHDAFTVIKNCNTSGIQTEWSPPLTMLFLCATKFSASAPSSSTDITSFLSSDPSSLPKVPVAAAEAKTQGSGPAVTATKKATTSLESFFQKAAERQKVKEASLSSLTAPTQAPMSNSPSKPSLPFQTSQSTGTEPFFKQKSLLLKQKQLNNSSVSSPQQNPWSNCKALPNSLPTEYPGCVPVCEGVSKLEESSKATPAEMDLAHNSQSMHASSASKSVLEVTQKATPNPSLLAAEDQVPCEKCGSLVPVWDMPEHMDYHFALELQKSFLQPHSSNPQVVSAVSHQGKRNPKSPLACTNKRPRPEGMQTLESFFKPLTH

T4: Flag-Polη-5A (T457A/S458A/S459A/S466A/T471A) (human) (UniProt Q9Y253)
T4 sequence: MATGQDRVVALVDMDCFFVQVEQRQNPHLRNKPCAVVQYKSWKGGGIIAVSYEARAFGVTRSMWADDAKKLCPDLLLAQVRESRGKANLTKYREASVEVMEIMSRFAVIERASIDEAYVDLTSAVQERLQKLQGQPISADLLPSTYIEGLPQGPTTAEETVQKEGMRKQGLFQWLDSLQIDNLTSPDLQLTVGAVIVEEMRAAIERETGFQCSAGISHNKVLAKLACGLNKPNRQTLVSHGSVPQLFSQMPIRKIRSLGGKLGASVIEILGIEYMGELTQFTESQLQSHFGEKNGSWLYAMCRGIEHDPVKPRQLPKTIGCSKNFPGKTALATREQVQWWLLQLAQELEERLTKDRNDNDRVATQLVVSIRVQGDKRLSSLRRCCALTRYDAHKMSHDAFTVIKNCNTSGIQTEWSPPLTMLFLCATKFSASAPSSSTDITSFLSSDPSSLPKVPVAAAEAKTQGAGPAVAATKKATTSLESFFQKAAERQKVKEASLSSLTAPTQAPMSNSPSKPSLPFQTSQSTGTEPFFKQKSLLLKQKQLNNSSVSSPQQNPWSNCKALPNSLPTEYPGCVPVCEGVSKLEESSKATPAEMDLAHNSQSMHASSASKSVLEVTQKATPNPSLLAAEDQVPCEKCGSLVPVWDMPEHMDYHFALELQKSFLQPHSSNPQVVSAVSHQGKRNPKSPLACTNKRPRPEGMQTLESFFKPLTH


Columns and labels:
[1] = target: T1, 2xFlag-Polη (DNA polymerase η, wild type) (human); assay: co-IP; 293T cells transfected with Flag-Polη (WT or mutants); lysis in HEPES buffer (50 mM HEPES pH 7.5, 150 mM NaCl, 1% Triton X-100); anti-Flag M2 agarose; blot with anti-OGT; also after UVC (15 J m^-2, 4 h) or CDDP (10 µg ml^-1, 2 h)
[2] = target: T2, Flag-Polη T457A (human); assay: as above
[3] = target: T3, Flag-Polη-3A (T457A/S458A/S459A) (human); assay: as above
[4] = target: T4, Flag-Polη-5A (T457A/S458A/S459A/S466A/T471A) (human); assay: as above
[5] = target: T1, 2xFlag-Polη (DNA polymerase η, wild type) (human); assay: co-IP; Myc-tagged WT OGT and a series of OGT deletion mutants with Polη (Supplementary Fig. 2d); who was precipitated not shown

binding [1]	binding [2]	binding [3]	binding [4]	binding [5]	Binder
binds	binds	binds	binds	–	O-GlcNAc transferase (OGT), endogenous (enzyme, UniProt O15294 1-1046) MASSVGNVADSTEPTKRMLSFQGLAELAHREYQAGDFEAAERHCMQLWRQEPDNTGVLLLLSSIHFQCRRLDRSAHFSTLAIKQNPLLAEAYSNLGNVYKERGQLQEAIEHYRHALRLKPDFIDGYINLAAALVAAGDMEGAVQAYVSALQYNPDLYCVRSDLGNLLKALGRLEEAKACYLKAIETQPNFAVAWSNLGCVFNAQGEIWLAIHHFEKAVTLDPNFLDAYINLGNVLKEARIFDRAVAAYLRALSLSPNHAVVHGNLACVYYEQGLIDLAIDTYRRAIELQPHFPDAYCNLANALKEKGSVAEAEDCYNTALRLCPTHADSLNNLANIKREQGNIEEAVRLYRKALEVFPEFAAAHSNLASVLQQQGKLQEALMHYKEAIRISPTFADAYSNMGNTLKEMQDVQGALQCYTRAIQINPAFADAHSNLASIHKDSGNIPEAIASYRTALKLKPDFPDAYCNLAHCLQIVCDWTDYDERMKKLVSIVADQLEKNRLPSVHPHHSMLYPLSHGFRKAIAERHGNLCLDKINVLHKPPYEHPKDLKLSDGRLRVGYVSSDFGNHPTSHLMQSIPGMHNPDKFEVFCYALSPDDGTNFRVKVMAEANHFIDLSQIPCNGKAADRIHQDGIHILVNMNGYTKGARNELFALRPAPIQAMWLGYPGTSGALFMDYIITDQETSPAEVAEQYSEKLAYMPHTFFIGDHANMFPHLKKKAVIDFKSNGHIYDNRIVLNGIDLKAFLDSLPDVKIVKMKCPDGGDNADSSNTALNMPVIPMNTIAEAVIEMINRGQIQITINGFSISNGLATTQINNKAATGEEVPRTIIVTTRSQYGLPEDAIVYCNFNQLYKIDPSTLQMWANILKRVPNSVLWLLRFPAVGEPNIQQYAQNMGLPQNRIIFSPVAPKEEHVRRGQLADVCLDTPLCNGHTTGMDVLWAGTPMVTMPGETLASRVAASQLTCLGCLELIAKNRQEYEDIAVKLGTDLEYLKKVRGKVWKQRISSPLFNTKQYTMELERLYLQMWEHYAAGNKPDHMIKPVEVTESA
–	–	–	–	binds	Myc-tagged WT OGT (enzyme, UniProt O15294 1-1046) MASSVGNVADSTEPTKRMLSFQGLAELAHREYQAGDFEAAERHCMQLWRQEPDNTGVLLLLSSIHFQCRRLDRSAHFSTLAIKQNPLLAEAYSNLGNVYKERGQLQEAIEHYRHALRLKPDFIDGYINLAAALVAAGDMEGAVQAYVSALQYNPDLYCVRSDLGNLLKALGRLEEAKACYLKAIETQPNFAVAWSNLGCVFNAQGEIWLAIHHFEKAVTLDPNFLDAYINLGNVLKEARIFDRAVAAYLRALSLSPNHAVVHGNLACVYYEQGLIDLAIDTYRRAIELQPHFPDAYCNLANALKEKGSVAEAEDCYNTALRLCPTHADSLNNLANIKREQGNIEEAVRLYRKALEVFPEFAAAHSNLASVLQQQGKLQEALMHYKEAIRISPTFADAYSNMGNTLKEMQDVQGALQCYTRAIQINPAFADAHSNLASIHKDSGNIPEAIASYRTALKLKPDFPDAYCNLAHCLQIVCDWTDYDERMKKLVSIVADQLEKNRLPSVHPHHSMLYPLSHGFRKAIAERHGNLCLDKINVLHKPPYEHPKDLKLSDGRLRVGYVSSDFGNHPTSHLMQSIPGMHNPDKFEVFCYALSPDDGTNFRVKVMAEANHFIDLSQIPCNGKAADRIHQDGIHILVNMNGYTKGARNELFALRPAPIQAMWLGYPGTSGALFMDYIITDQETSPAEVAEQYSEKLAYMPHTFFIGDHANMFPHLKKKAVIDFKSNGHIYDNRIVLNGIDLKAFLDSLPDVKIVKMKCPDGGDNADSSNTALNMPVIPMNTIAEAVIEMINRGQIQITINGFSISNGLATTQINNKAATGEEVPRTIIVTTRSQYGLPEDAIVYCNFNQLYKIDPSTLQMWANILKRVPNSVLWLLRFPAVGEPNIQQYAQNMGLPQNRIIFSPVAPKEEHVRRGQLADVCLDTPLCNGHTTGMDVLWAGTPMVTMPGETLASRVAASQLTCLGCLELIAKNRQEYEDIAVKLGTDLEYLKKVRGKVWKQRISSPLFNTKQYTMELERLYLQMWEHYAAGNKPDHMIKPVEVTESA
